# Values from PubChem BioAssay AID652243 (Drosophila RNAi Screening Center, 2013)
# Assay: 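Fly genes required for human androgen receptor driven transcription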 (primary screen)
# Cells: Drosophila S2R+ cells
# Knock-down reagent: long dsRNA against Drosophila genes
# Timing: 72 h (48 h, then 24 h hormone)
# Treatment: synthetic androgen R1881 at 10 nM for 24 h
# Detection: 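Firefly light from an androgen-responsive reporter and Renilla control light per well, raw and unnormalised, for each of two replicates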
# Reading the numbers: firefly reporter light: higher = more light from androgen-responsive reporter; Renilla control light: higher = more constitutive control signal (cell number, transfection)
# Active means: 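Hit when the log firefly-to-Renilla ratio dropped or increased by a fixed fold versus the mean of GFP or LacZ controls across duplicate plates; lowering cut given as 1.5 and as 3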
# Meaning of the calls: active = hit: reporter lowered or raised; inactive = no hit
# In all, the deposit lists about 24,000 reagents; this is an unselected part of those that have a named target and a result. In the full data, 246 (1%) are marked active. 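Plates not normalised; calls are printed but the firefly/Renilla ratio behind them is not deposited; fold cut for lowering reported inconsistently.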 The raw values are shown without normalisation. Reagents against one gene are numbered here. A plus sign joins genes that one reagent is predicted to hit. No sequences are given here. The record does not give: the amount of reagent.
Target gene,dsRNA no.,"firefly reporter light, replicate 1","firefly reporter light, replicate 2","Renilla control light, replicate 1","Renilla control light, replicate 2",activity call
Fkbp39,1,28239,29862,2.14e5,2.58e5,inactive
Fkbp39,2,3.92e5,4.00e5,5.40e5,4.79e5,inactive
CR34254,1,1.34e6,7.35e5,2.48e6,1.64e6,inactive
CG7011,1,2.07e5,1.58e5,4.96e5,4.02e5,inactive
CG7011,2,4.94e5,8.30e5,1.08e6,1.84e6,inactive
Su(Tpl),1,13436,31129,1.74e5,2.10e5,inactive
Su(Tpl),2,38945,35037,94471,91792,inactive
CG10887,1,8.10e5,7.88e5,2.24e6,1.94e6,inactive
CG10887,2,2.18e5,2.75e5,5.73e5,7.96e5,inactive
t-cup,1,1.99e5,1.67e5,2.87e5,2.18e5,inactive
t-cup,2,2.52e5,3.23e5,5.17e5,8.71e5,inactive
Tie,1,22328,65495,1.41e5,1.81e5,inactive
Tie,2,1.01e5,1.29e5,1.89e6,1.90e6,inactive
Tie,3,,,,,inactive
Tie,4,,,,,inactive
CG13875,1,1.12e5,99396,9.00e5,1.20e6,inactive
sti,1,2.27e5,2.06e5,1.47e6,1.46e6,active
sti,2,2.35e5,1.86e5,1.90e6,1.42e6,inactive
sti,3,,,,,inactive
psidin,1,2.47e5,2.32e5,3.45e6,2.63e6,inactive
CG34213,1,9.47e5,9.32e5,1.80e6,2.22e6,inactive
E(spl)mdelta-HLH,1,1.27e5,1.28e5,2.38e6,2.24e6,inactive
Muc68D,1,1.20e6,1.50e6,1.18e6,2.70e6,inactive
beat-Ic,1,1.28e5,2.11e5,2.70e5,4.55e5,inactive
beat-Ic,2,66085,55328,1.09e6,1.24e6,inactive
beat-Ic,3,1.13e6,9.39e5,1.14e6,1.14e6,inactive
beat-Ic,4,4.82e5,8.82e5,1.43e6,2.52e6,inactive
MFS9,1,90620,94500,9.69e5,8.40e5,inactive
Orct,1,1.06e5,1.32e5,8.66e5,1.01e6,inactive
Orct,2,5.62e5,4.08e5,4.11e5,4.33e5,inactive
Spn28Da,1,1.50e5,2.07e5,1.48e6,1.20e6,inactive
CG13216,1,1.82e5,1.52e5,8.72e5,8.58e5,inactive
CG8135 + BBIP1,1,2.20e5,1.64e5,3.58e5,2.24e5,inactive
CG8135 + BBIP1,2,94025,1.21e5,1.73e6,2.06e6,inactive
CG8135 + BBIP1,3,2.64e5,2.57e5,8.21e5,5.53e5,inactive
CG12920,1,1.75e5,2.13e5,1.08e6,7.57e5,inactive
knrl,1,8.44e5,8.11e5,1.30e6,1.07e6,inactive
knrl,2,4.31e5,7.75e5,1.68e6,2.59e6,inactive
Polr1A,1,1.39e6,9.89e5,3.18e6,2.26e6,inactive
RhoGAP1A,1,2.73e5,1.21e5,8.05e5,5.82e5,inactive
RhoGAP1A,2,1.58e5,1.76e5,5.89e5,4.79e5,inactive
CG6724,1,2.09e5,2.65e5,1.75e6,1.80e6,inactive
Eig71Ec,1,2.90e5,3.04e5,3.00e6,2.60e6,inactive
CG42565,1,1.43e5,1.81e5,1.48e6,1.38e6,inactive
CG2233,1,47759,40983,5.15e5,3.41e5,inactive
prel,1,8.42e5,4.60e5,2.49e6,1.78e6,inactive
CG9107,1,1.02e6,9.08e5,1.09e6,1.23e6,inactive
CG14689,1,1.56e5,2.05e5,2.87e6,2.79e6,inactive
CG14689,2,5.92e5,4.58e5,1.85e6,1.36e6,inactive
CG34207,1,9.00e5,8.59e5,1.86e6,2.33e6,inactive
hb,1,17662,19542,1.69e5,2.10e5,inactive
hb,2,1.48e6,6.17e5,4.05e6,1.61e6,inactive
Gabat,1,1.34e5,1.60e5,1.64e6,1.52e6,inactive
CG4743,1,1.88e5,1.92e5,1.94e6,1.73e6,inactive
RpS24,1,2.36e5,4.62e5,9.06e5,1.30e6,inactive
RpS24,2,1.95e5,1.92e5,7.30e5,6.52e5,active
CG12783,1,1.27e5,90261,1.50e6,2.01e6,inactive
Cnx99A + Cnx14D,1,1.93e5,1.44e5,1.95e6,2.98e6,inactive
